This is one part of the list.
Key:
Experiment in all cases: log2 fold change, soluble protein after heating vs DMSO (PISA); higher = thermal stabilisation; K562 lysate, 10 uM; active = over 0.2 and 3.5 SD of the protein, either way, in both replicates (recomputed)
pictilisib = compound: CS(=O)(=O)N1CCN(Cc2cc3nc(-c4cccc5[nH]ncc45)nc(N4CCOCC4)c3s2)CC1 [pictilisib]
How it was run: (§1)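 The values are log-two fold changes in thermal stability compared with solvent controls and come from duplicates. They were obtained by TMTpro 16plex LC-MS/MS, with channel sums equalised, on the supernatant after 21,000xg for 90 min. That supernatant came from crude K562 extract at 1 mg/mL protein treated with 10 μM compound for 30 min, heated for 3 min across 48°C-58°C, pooled and brought to 0.5% NP-40 at 4°C.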

Sequences of proteins named here, by UniProt entry; tags and fusion partners are left off. A change or cut given only in a name is not applied to a line headed by its entry.
UniProt Q9ULZ2: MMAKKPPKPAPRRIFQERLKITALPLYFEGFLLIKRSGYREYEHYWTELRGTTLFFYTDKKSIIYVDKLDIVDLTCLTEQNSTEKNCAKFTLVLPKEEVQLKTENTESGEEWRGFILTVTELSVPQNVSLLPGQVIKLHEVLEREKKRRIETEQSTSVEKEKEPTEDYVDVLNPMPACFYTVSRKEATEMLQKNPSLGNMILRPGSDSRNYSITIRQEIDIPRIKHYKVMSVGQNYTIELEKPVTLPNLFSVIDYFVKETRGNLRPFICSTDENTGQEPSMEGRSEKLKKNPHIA
UniProt Q8NCJ5: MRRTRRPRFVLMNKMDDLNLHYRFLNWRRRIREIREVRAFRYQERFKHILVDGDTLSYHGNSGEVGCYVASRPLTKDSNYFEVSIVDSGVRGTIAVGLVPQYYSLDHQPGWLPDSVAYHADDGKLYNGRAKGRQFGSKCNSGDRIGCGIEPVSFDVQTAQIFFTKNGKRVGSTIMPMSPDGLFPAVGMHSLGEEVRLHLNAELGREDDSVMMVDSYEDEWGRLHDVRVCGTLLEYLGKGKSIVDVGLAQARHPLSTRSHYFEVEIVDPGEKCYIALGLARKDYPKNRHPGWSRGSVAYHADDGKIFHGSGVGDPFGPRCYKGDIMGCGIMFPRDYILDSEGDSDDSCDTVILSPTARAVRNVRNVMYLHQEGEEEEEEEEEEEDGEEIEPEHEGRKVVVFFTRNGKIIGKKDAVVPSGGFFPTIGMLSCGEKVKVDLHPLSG
UniProt O95793: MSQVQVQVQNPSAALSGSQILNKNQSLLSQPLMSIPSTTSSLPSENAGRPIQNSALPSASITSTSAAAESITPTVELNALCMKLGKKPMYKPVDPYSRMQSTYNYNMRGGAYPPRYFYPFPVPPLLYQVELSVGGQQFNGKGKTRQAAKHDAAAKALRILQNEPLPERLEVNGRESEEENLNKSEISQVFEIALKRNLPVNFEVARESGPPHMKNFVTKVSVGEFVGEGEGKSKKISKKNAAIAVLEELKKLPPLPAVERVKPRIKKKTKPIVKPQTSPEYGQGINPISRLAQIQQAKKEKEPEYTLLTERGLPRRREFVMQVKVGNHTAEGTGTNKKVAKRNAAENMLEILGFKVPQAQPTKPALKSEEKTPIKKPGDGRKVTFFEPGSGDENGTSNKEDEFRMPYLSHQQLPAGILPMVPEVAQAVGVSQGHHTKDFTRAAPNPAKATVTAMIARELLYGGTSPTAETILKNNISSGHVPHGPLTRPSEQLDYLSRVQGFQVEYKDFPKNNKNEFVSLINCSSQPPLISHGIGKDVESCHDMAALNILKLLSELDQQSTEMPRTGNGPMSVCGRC
UniProt Q8N0Z3: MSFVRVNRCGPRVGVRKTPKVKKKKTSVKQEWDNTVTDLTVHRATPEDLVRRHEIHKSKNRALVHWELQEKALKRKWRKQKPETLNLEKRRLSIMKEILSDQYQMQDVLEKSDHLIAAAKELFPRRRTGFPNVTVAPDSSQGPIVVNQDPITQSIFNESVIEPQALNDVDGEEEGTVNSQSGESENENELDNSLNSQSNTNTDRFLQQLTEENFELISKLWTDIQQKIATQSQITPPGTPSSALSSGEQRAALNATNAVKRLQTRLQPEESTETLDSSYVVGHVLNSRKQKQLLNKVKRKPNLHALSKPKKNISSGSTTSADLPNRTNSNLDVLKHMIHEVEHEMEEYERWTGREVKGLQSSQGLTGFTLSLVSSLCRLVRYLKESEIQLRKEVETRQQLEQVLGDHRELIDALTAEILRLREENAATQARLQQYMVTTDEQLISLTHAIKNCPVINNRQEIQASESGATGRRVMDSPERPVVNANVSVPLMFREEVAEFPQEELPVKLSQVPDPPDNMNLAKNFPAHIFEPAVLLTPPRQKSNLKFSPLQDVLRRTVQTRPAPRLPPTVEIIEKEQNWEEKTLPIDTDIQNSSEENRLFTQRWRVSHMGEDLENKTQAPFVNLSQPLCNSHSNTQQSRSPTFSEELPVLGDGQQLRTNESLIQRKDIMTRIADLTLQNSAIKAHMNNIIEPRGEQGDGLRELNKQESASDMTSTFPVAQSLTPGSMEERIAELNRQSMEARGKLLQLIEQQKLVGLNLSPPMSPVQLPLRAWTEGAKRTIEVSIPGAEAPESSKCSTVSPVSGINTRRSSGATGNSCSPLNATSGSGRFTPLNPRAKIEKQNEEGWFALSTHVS
UniProt Q96DR4, whole entry, looked up: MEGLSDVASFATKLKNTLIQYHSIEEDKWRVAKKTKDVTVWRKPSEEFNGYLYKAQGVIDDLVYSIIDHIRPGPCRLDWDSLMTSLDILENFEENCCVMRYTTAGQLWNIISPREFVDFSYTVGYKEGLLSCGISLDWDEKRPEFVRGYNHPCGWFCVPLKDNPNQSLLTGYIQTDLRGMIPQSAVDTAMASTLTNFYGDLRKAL
UniProt Q9C0H9: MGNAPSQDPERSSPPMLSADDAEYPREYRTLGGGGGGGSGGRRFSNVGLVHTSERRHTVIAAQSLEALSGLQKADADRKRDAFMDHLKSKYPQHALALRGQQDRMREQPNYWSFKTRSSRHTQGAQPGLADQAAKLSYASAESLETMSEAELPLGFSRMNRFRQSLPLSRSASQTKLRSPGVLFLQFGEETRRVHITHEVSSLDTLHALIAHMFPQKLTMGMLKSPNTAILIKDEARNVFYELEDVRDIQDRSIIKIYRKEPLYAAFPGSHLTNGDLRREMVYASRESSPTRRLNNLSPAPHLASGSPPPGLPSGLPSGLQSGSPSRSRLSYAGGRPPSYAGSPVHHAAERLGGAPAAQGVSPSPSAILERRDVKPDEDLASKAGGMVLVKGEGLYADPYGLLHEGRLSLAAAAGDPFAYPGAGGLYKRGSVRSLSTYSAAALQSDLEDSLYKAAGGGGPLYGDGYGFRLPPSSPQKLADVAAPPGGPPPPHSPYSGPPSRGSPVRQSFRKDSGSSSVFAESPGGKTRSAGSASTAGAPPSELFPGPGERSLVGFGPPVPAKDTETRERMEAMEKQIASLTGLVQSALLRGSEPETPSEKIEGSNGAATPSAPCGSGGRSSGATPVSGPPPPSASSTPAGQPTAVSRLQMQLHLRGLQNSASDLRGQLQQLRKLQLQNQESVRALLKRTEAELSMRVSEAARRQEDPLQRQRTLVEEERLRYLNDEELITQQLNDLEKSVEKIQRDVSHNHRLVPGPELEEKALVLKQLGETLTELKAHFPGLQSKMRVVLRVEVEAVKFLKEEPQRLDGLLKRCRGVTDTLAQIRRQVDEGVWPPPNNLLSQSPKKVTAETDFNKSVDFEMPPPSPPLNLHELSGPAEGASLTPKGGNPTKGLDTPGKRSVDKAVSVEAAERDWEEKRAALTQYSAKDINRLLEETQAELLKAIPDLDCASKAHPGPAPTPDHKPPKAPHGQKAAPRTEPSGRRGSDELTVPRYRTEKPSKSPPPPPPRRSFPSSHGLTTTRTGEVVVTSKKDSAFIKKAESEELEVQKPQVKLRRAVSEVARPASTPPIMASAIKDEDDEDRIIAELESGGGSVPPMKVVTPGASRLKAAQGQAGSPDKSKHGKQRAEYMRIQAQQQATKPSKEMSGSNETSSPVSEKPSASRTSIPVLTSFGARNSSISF
UniProt Q11201: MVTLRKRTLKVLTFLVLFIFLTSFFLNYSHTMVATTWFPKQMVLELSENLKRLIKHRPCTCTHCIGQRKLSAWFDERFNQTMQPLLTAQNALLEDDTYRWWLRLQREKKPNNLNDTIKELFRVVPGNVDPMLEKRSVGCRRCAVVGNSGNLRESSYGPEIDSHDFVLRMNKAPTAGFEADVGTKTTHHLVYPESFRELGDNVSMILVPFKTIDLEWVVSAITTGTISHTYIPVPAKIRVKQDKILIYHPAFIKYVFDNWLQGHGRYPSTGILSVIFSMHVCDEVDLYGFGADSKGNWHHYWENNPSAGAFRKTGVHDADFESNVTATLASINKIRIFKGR

crizotinib = compound: C[C@@H](Oc1cc(-c2cnn(C3CCNCC3)c2)cnc1N)c1c(Cl)ccc(F)c1Cl [crizotinib]
How it was run: as §1

tozasertib = compound: Cc1cc(Nc2cc(N3CCN(C)CC3)nc(Sc3ccc(NC(=O)C4CC4)cc3)n2)n[nH]1 [tozasertib]
How it was run: as §1

doramapimod = compound: Cc1ccc(-n2nc(C(C)(C)C)cc2NC(=O)Nc2ccc(OCCN3CCOCC3)c3ccccc23)cc1 [doramapimod]
How it was run: as §1

bafetinib = compound: Cc1ccc(NC(=O)c2ccc(CN3CC[C@H](N(C)C)C3)c(C(F)(F)F)c2)cc1Nc1nccc(-c2cncnc2)n1 [bafetinib]
How it was run: as §1

duvelisib = compound: C[C@H](Nc1ncnc2nc[nH]c12)c1cc2cccc(Cl)c2c(=O)n1-c1ccccc1 [duvelisib]
How it was run: as §1

[1] = compound: C[C@H](C1=CC=C(C=C1)C(=O)NC2=C3C=CNC3=NC=C2)N
How it was run: as §1

gandotinib = compound: Cc1cc(Nc2cc(CN3CCOCC3)c3nc(C)c(Cc4ccc(Cl)cc4F)n3n2)n[nH]1 [gandotinib]
How it was run: as §1

[2] = compound: Cc1cccc(CC(=O)N2CCc3c2ccc(-c2cn(C)c4ncnc(N)c24)c3F)n1
How it was run: as §1

lapatinib = compound: CS(=O)(=O)CCNCc1ccc(-c2ccc3ncnc(Nc4ccc(OCc5cccc(F)c5)c(Cl)c4)c3c2)o1 [lapatinib]
How it was run: as §1

Measured: log2 fold change

SPTAN1 isoform 3 (UniProt Q13813)
inactive: pictilisib 0.004 | crizotinib -0.16 | tozasertib -0.044 | doramapimod -0.05 | bafetinib 0.171

STAP1 (UniProt Q9ULZ2)
inactive: duvelisib 0.078

SPC24 (UniProt K7ESQ2)
inactive: crizotinib -0.019 | [1] -0.008 | gandotinib 0 | tozasertib -0.008 | doramapimod 0.125 | [2] -0.006

SPRYD3 (UniProt Q8NCJ5)
inactive: pictilisib -0.186 | crizotinib -0.07 | [1] -0.074 | gandotinib 0.04 | doramapimod 0.055 | bafetinib -0.024 | [2] 0.194

STAU1 isoform 3 (UniProt O95793)
inactive: pictilisib 0.048 | crizotinib 0.049 | [1] -0.298 | gandotinib 0.112 | doramapimod 0.269 | bafetinib -0.086 | [2] 0.078

SPICE1 (UniProt Q8N0Z3)
inactive: tozasertib -0.047

STARD4 (UniProt Q96DR4)
inactive: [1] -0.053 | gandotinib 0.1 | tozasertib 0.021 | [2] 0.025

SRCIN1 (UniProt Q9C0H9)
inactive: lapatinib 0.118 | [1] -0.095 | gandotinib -0.011 | tozasertib 0.015 | [2] 0.077

ST3GAL1 (UniProt Q11201)
inactive: crizotinib 0.272 | duvelisib 0.1 | doramapimod -0.048
